From the supplement of paper PMC12823440, “Inhibitors supercharge kinase turnover through native proteolytic circuits” (Nature, 2025)
Structures can show the parent of a compound that is named as a salt. Some of the results follow. Hit calls seldom repeat between salt and free forms of one compound.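 Kinases were expressed as nanoluciferase fusions in K562 cells and luminescence was read every 4 h between 2 and 18 h as percent of control, DMSO set to 100% and a positive control to 0%. A time point counts as decreased when the signal drops significantly (2 sigma). The hit call is the authors' own, does not follow from the count of time points alone, and its rule is not shown.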

Sequences of proteins named here, by UniProt entry; tags and fusion partners are left off.
UniProt Q00534, whole entry: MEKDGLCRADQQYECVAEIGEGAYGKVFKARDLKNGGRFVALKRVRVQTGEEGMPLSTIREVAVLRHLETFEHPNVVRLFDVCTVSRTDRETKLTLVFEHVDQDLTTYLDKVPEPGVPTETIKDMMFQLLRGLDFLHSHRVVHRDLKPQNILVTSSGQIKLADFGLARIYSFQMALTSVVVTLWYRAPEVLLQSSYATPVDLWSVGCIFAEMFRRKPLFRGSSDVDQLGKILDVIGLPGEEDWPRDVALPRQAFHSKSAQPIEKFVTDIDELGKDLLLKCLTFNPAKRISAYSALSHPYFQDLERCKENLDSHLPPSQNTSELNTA

Each compound was assayed against CDK6 (UniProt Q00534) (assay: kinase-Nluc reporter destabilization hit call (1 = scored as downregulated) (binary); higher = compound decreases kinase abundance). Settings: K562; 2-18 h.

kinase-Nluc reporter destabilization hit call, inactive:
O=c1cc(O)cc(/C=C/c2ccc(O)c(O)c2)o1 [Hispidin] (10 µM) 0
CC1CN(C(=O)Nc2ccc(Cl)c(Cl)c2)C(=Nc2ccc(F)cc2)S1 (stereo not drawn) (10 µM) 0
COc1cc2c[n+](C)c3c4cc5c(cc4ccc3c2cc1OC)OCO5 [Nitidine (chloride)] (2 µM) 0
Cc1c(CN2CCN(S(C)(=O)=O)CC2)sc2c(N3CCOCC3)nc(-c3cnc(N)nc3)nc12 (2.5 µM) 0
Cc1cc([C@H](C)Nc2ccccc2)c2oc(N3CCOCC3)cc(=O)c2c1 (10 µM) 0
O=C(CNC(=O)c1ccc(-c2ccccc2)cc1)NC1CCCc2ccccc21 (stereo not drawn) [TAO Kinase inhibitor 1] (10 µM) 0
Cn1cc(-c2ccc(CNc3cc(-c4cnc5cc(OCCCN6CCCC6)ccn45)ncn3)cc2)cn1 (10 µM) 0
Cc1ccc(S(=O)(=O)Nc2ccccc2C=Nc2ccccc2NS(=O)(=O)c2ccc(C)cc2)cc1 (10 µM) 0
O=C(/C=C/c1ccc(O)c(O)c1)c1ccc(O[C@@H]2O[C@H](CO)[C@@H](O)[C@H](O)[C@H]2O)c(O)c1O [Marein] (10 µM) 0
O=C(NCCCNc1nc(Nc2cccc(NC(=O)N3CCCC3)c2)ncc1I)c1cccs1 (2.5 µM) 0
CN(CCNc1ccc2ncc(-c3ccc(C(N)=O)cc3)n2n1)C(=O)OC(C)(C)C (10 µM) 0
C=C(C)C(=O)Nc1cccc(-c2ncnc3[nH]cc(C(=O)OCC)c23)c1 (10 µM) 0
COc1ccc(C(=C2C(=O)Nc3ccccc32)c2ccc(OC)cc2)cc1 (10 µM) 0
CN1CCN(c2ccc(C(=O)Nc3cc(-c4cccc(NS(=O)(=O)c5ccccc5)c4)[nH]n3)cc2)CC1 [BPR1J-097 Hydrochloride] (2.5 µM) 0
C=CC(=O)Nc1cc2c(Nc3ccc(OCc4ccccn4)c(Cl)c3)ncnc2cc1OCCN1CCOCC1 (10 µM) 0
Cc1c(NC(=O)OC[C@@H]2COCCN2)cn2ncnc(Nc3ccc4c(cnn4Cc4cccc(F)c4)c3)c12 (10 µM) 0
CNc1nc(Nc2cnn(C3CCN(C4COC4)CC3F)c2Cl)ncc1C(F)(F)F (stereo not drawn) (10 µM) 0
O=C(NCCO)c1ccc2c(c1)nc(Nc1cccc(Cl)c1)c1ccncc12 [CK2 inhibitor 2] (10 µM) 0
N#CC(c1ccnc(NCCc2cccnc2)n1)c1nc2ccccc2s1 (stereo not drawn) (10 µM) 0
CCN(CC)S(=O)(=O)c1ccc(OC)c(N2CCN(C(=O)c3ccc(F)cc3C(F)(F)F)CC2)c1 (10 µM) 0
CO[C@H]1C[C@@H]2CC[C@@H](C)[C@@](O)(O2)C(=O)C(=O)N2CCCC[C@H]2C(=O)O[C@H]([C@H](C)C[C@@H]2CC[C@@H](O)[C@H](OC)C2)CC(=O)[C@H](C)/C=C(\C)[C@@H](O)[C@@H](OC)C(=O)[C@H](C)C[C@H](C)/C=C/C=C/C=C/1C [Rapamycin] (10 µM) 0
CN(C)CCN(Cc1ccc(Cl)cc1)c1ccccn1 [Chloropyramine hydrochloride] (10 µM) 0
O=C(Nc1ccc(F)cc1F)[C@H](NC(=S)Nc1cc(C(F)(F)F)cc(C(F)(F)F)c1)c1ccccc1 (2.5 µM) 0
Cc1ccc(Nc2cc(-c3cccc(N4C(=O)c5ccccc5C4=O)c3)ncn2)cc1NS(C)(=O)=O (10 µM) 0
CC(C)(C)c1ccc(S(=O)(=O)Nc2ccc(-n3ccnc3)cc2)cc1 (10 µM) 0
CCc1cc(O)c(F)cc1-c1ccc2c(-c3nc4c([nH]3)CN(C3CCN(C)CC3)CC4)n[nH]c2c1 [JAK-IN-5 (hydrochloride)] (2 µM) 0
CC1=C2C(=O)O[C@@H](c3ccoc3)[C@]2(C)CCC1 [Fraxinellone] (10 µM) 0
COc1cc(C(N)=O)nc(-c2cccc(C#C[C@]3(O)CCN(C)C3=O)c2)c1 (10 µM) 0
COc1ncc(-c2nc(N3CCOCC3)nc3c(CN4CCC(C(C)(C)O)CC4)cc(F)cc23)cc1NS(C)(=O)=O [Linperlisib] (10 µM) 0
Fc1ccc(-c2nc(-c3ccccc3F)[nH]c2-c2ccncc2)cc1 (2.5 µM) 0
CC(C)=CC[C@H](O)C1=CC(=O)c2c(O)ccc(O)c2C1=O [(-)-Alkannin] (2.5 µM) 0
CC(C)c1cnc(-c2cc(Cl)ccc2F)cc1Nc1ccncc1C(=O)NC(CO)CO (2.5 µM) 0
Cn1cnc(-c2cc3nccc(Oc4ccc(NC(=S)NC(=O)Cc5ccccc5)cc4F)c3s2)c1 [MGCD-265 analog] (10 µM) 0
COC1(c2sc3c(N4CCOCC4)nc(-c4cnc(N)nc4)nc3c2C)COC1 (2.5 µM) 0
Cc1cc(NC(=O)c2cccc(NC(=O)/C=C/CN(C)C)c2)ccc1Nc1nccc(-c2cccnc2)n1 (10 µM) 0
O=C(/C=C/c1ccc(O)c(O)c1)OC1CC(OC(=O)/C=C/c2ccc(O)c(O)c2)(C(=O)O)CC(O)C1O (stereo not drawn) [1,3-Dicaffeoylquinic acid] (10 µM) 0
COc1ccc2c(c1O)OC(C)(C)c1c-2ccc2c1C(=O)N(c1ccc(C(=O)c3ccccc3)cc1)C2=O [Ampkinone] (10 µM) 0
CNC(=O)Nc1ccc(-c2cc(-c3ccnc(Nc4ccc(C)c(S(=O)(=O)N(C)C)c4)n3)ccn2)cc1 [hSMG-1 inhibitor 11e] (2.5 µM) 0

Two consecutive entries from above, for reference:
kinase-Nluc reporter destabilization hit call, inactive:
CC(C)(C)c1ccc(S(=O)(=O)Nc2ccc(-n3ccnc3)cc2)cc1 (10 µM) 0
CCc1cc(O)c(F)cc1-c1ccc2c(-c3nc4c([nH]3)CN(C3CCN(C)CC3)CC4)n[nH]c2c1 [JAK-IN-5 (hydrochloride)] (2 µM) 0
